Values of other authors, collected in patent US20090214511A1, “DIGESTIBLE COMPOSITIONS OF INULIN FOR MANAGING BLOOD GLUCOSE LEVELS” (priority 2008, published 2009).
For at least one compound, name, drawing or mass did not settle the structure.

Conditions: Type 2 diabetes, initial choice of anti-diabetic drug

CN(CCOc1ccc(CC2SC(=O)NC2=O)cc1)c1ccccn1 (stereo not shown) [rosiglitazone]
cumulative incidence of monotherapy failure at 5 years: 15%
